Source: patent publication US20140163050A1, “Use of 1H-quinazoline-2,4-diones” (priority 2011, published 2014)

Test system: patients with PSE
Test: PK-PD relationship, Emax model for SPR
Assay type: in vivo, human
Experimental: The mean SPR per eye condition and plasma PK concentrations of C-7 50, 100, and 15 mg dose groups is shown in FIG. 3, FIG. 4 and FIG. 5, respectively.
A PK-PD model was developed sequentially for the SPR data. Firstly a pharmacokinetic model was fitted using nonlinear mixed effects methodology in NONMEM version VI to describe the 13 patients with both PK and PD data. A 3 compartment disposition model with first order absorption and absorption lag time was selected to describe the pharmacokinetic time profile for each patient. The between patient variability was described by exponential random effects on each pharmacokinetic parameter, with all parameters assumed to be independent between individuals. The residual error model combined the additive and proportional error terms. The estimated pharmacokinetic parameters for each patient were used to generate each patient's PK profile as an input to the pharmacodynamic model.
For the Pharmacodynamic response, SPR, an Emax model was fitted on the logit transformed scale:
where Base is the baseline SPR on the logit scale, Emax is the maximum reduction in SPR on the logit scale, EC50 is the concentration at which the 50% of the maximum reduction is obtained and C is C-7 concentration. […]

For `CC(C)c1cc2[nH]c(=O)n(NS(C)(=O)=O)c(=O)c2cc1-c1ccnn1C` [Compound C-7, N-[7-Isopropyl-6-(2-methyl-2H-pyrazol-3-yl)-2,4-dioxo-1,4-dihydro-2H-quinazolin-3-yl]-methanesulfonamide], the “relationship between SPR Tmax and PK Tmax” value (SPR and PK concentration over time plots, 15, 50, 100 mg) was “linear relationship” and the “onset of PD effect relative to maximum plasma concentrations” value (all dose groups) was “either an hour before or around the same time when maximum plasma concentrations were achieved”.
